Experimental data as given in patent US20230073692A1 (CYTOMX THERAPEUTICS, published 2023).
Substitutions are numbered along the chain they refer to. Numbers in names are those of the source. No constants are given. Whether binding was seen depends on the method and setting. Some entries that bind do so weakly or less than the wild type.

B1: cHv83-3a23.G1(L328C)k (antibody, V domains shown)
VH: EVQLVESGGGLVQPGGSLRLSCAASGFTFSSYVMHWVRQAPGKGLEYVSGVSSSGDSTFYVDSVKGRFTISRDNSKNTLYLQMGSLRAEDMAVYYCARGGITGAPLVFDIWGQGTMVTVSS
VL: DIQMTQSPSSLSASVGDRVTITCRASQSISRFLNWYQQKPGKAPKVLIYVTSSLQSGVPSRFSGSGSGTDFTLTISSLQPEDFATYYCQQSYNTPITFGQGTRLEIKR
notes: the name says L328C in the IgG1 constant region; also called [Ag]AB-2; unconjugated antibody of OT1 / OT#1
B2: cHv83-1b15.G1(L328C)k (antibody, V domains shown)
VH: EVQLVESGGGWVQPGGSLRLSCAASGFTFSSHIMYWVRQAPGKGLEYVSGISSNGLSSYYVDSVKGRFTISRDNSKNLLYVHMGSLKPEDMAMYYCARGGRDRVPAVFDYWGQGTLVTVSS
VL: B1 VL with V15I, S30G, R31T, T51A, S63I, N93S, T94V
notes: the name says L328C in the IgG1 constant region; also called [Ag]AB-3; cHv83-1b15.G1k(L328C)k

Biological target: Cyno SLC34A2 (cynomolgus monkey)
Assay: cell binding on recombinant SLC34A2 (Table 1)

| Binder | binding |
| --- | --- |
| B1 | binds |
| B2 | binds |
